Measurements: article PMC3378601
Results are given in words; binding and its absence hold for the method and conditions named. Some binding calls cover weakened binding; strength is not graded here.

The chains behind the UniProt entries cited, without tags or fusion partners. Residues count along the entry.
UniProt P05453, residues 1-253: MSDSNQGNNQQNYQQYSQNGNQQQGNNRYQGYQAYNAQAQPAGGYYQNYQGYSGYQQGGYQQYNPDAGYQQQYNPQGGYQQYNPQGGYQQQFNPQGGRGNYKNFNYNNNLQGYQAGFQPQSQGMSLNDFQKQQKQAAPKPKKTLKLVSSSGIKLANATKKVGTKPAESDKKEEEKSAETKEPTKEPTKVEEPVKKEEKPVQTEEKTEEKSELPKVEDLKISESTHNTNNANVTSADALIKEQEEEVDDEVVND
UniProt Q12329: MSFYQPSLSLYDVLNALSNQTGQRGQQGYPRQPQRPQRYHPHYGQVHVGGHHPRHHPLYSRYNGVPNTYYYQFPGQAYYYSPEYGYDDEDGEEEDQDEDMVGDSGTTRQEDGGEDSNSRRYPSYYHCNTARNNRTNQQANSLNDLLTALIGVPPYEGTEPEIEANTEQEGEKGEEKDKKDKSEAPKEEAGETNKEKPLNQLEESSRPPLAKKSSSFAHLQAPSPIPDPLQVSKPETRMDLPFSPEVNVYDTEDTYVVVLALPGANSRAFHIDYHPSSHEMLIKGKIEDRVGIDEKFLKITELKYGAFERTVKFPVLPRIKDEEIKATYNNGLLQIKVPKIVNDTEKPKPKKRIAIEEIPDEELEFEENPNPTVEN

Biological target: NM-his, C-terminally his-tagged NM of Sup35 (yeast) (UniProt P05453)
Experiment: pull-down; soluble NM-his (5 µM) incubated 60 min at 25°C with Hsp26 or Hsp42 (10 µM); NM-his recovered with Ni-NTA agarose, washed, eluted; SDS-PAGE, Coomassie; both purified

- binding: binds weakly
Substance: Hsp42, yeast small heat shock protein (from UniProt Q12329 1-375)
